Results taken from US20050118683A1.
No constants are given. Whether binding was seen depends on the method and setting. Some results given as binding are weak or reduced against the parent protein; the word gives no strength.

Amino acid sequences for entries named in this document (tags omitted). A change or cut given only in a name is not applied to a line headed by its entry.
UniProt P35225: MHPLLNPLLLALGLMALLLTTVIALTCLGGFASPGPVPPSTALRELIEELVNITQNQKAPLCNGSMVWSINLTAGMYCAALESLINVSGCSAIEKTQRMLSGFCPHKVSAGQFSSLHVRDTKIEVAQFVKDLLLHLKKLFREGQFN

Biological target: hIL-13Rα2.Fc fusion polypeptide (soluble human IL-13Rα2 extracellular domain fused to hinge-CH2-CH3 of human Ig γ-1 heavy chain) (human)
Assay: co-expressed complex held on a Protein A column, MgCl2 wash, SEC-HPLC of dissociated IL-13

## R127D human IL-13 (from UniProt P35225 35-146) (ligand)
  binding: binds

## R127P human IL-13 (from UniProt P35225 35-146) (ligand)
  binding: binds
